# In the supplement of paper PMC8256030:
# “And” between values parts separate entries of the source, which are not always exact repeats. Equal entries are not always repeated. Structures can show the parent of a compound that is named as a salt. This is one part of the list. This data set is noisy: repeats of one test often differ as much as different tests do.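 HEK293T cells were given each compound shortly before transfection with a reporter in which red mCherry is followed by the SARS-CoV-2 frameshift element and then GFP in the −1 frame, so GFP appears only after frameshifting.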
# Assays:
# [1] = tested on: SARS-CoV-2 -1 PRF reporter mCherry-FSE-GFP(-1); test: percent effect, decrease of GFP/mCherry ratio (-1 PRF reporter) relative to controls; higher = stronger frameshift inhibition; conditions: 10 µM; 24 h; HEK293T
# [2] = tested on: SARS-CoV-2 -1 PRF reporter mCherry-FSE-GFP(-1); test: mCherry (red) intensity as percent of control; higher = higher upstream reporter expression; conditions: 10 µM; 24 h; HEK293T
SMILES,percent effect [1],mCherry [2]
C[C@H]1C[C@H]2[C@@H]3CCC4=CC(=O)C=C[C@]4(C)[C@@]3(F)[C@@H](O)C[C@]2(C)[C@@]1(O)C(=O)CO [betamethasone],0.626% and -6% and -6.36%,–
CC[C@H](C)C(=O)O[C@H]1C[C@@H](C)C=C2C=C[C@H](C)[C@H](CC[C@@H]3C[C@@H](O)CC(=O)O3)[C@H]21 [lovastatin],0.296% and -0.713%,–
CO/N=C1\CN(c2nc3c(cc2F)c(=O)c(C(=O)O)cn3C2CC2)CC1CN (centres undefined) [gemifloxacin],-2.72% and 2.43%,–
CN(C)CCCC1(c2ccc(F)cc2)OCc2cc(C#N)ccc21 (centres undefined) [citalopram],4.72% and -7.14%,–
O=C(O)CCC(=O)c1ccc(-c2ccccc2)cc1 [fenbufen],-5.89% and -10.4%,–
COCCOC(=O)C1=C(C)NC(C)=C(C(=O)OC(C)C)C1c1cccc([N+](=O)[O-])c1 (centres undefined) [nimodipine],0.0676% and -3.32%,–
C[C@H]1C[C@@H]2[C@H]([C@@H](O)C[C@@]3(C)[C@H]2CC[C@]3(O)C(=O)CO)[C@@]2(C)C=CC(=O)C=C12 [methylprednisolone],-1.05% and -2.95%,–
CC/C(=C(/CC)c1ccc(O)cc1)c1ccc(O)cc1 [diethylstilbestrol],-0.886% and -9.03%,–
COc1ccc([C@@H]2Sc3ccccc3N(CCN(C)C)C(=O)[C@@H]2OC(C)=O)cc1 [diltiazem],13% and -7.77%,–
CC1(C)O[C@@H]2C[C@H]3[C@@H]4CCC5=CC(=O)C=C[C@]5(C)[C@H]4[C@@H](O)C[C@]3(C)[C@]2(C(=O)CO)O1,-5.29% and -8.83%,–
CCN(CC)C(=O)/C(C#N)=C/c1cc(O)c(O)c([N+](=O)[O-])c1 [entacapone],-0.182% and -3.22% and -1.68%,–
CC[C@]1(O)C[C@@H]2CN(CCc3c([nH]c4ccccc34)[C@@](C(=O)OC)(c3cc4c(cc3OC)N(C)[C@H]3[C@@](O)(C(=O)OC)[C@H](OC(C)=O)[C@]5(CC)C=CCN6CC[C@]43[C@@H]65)C2)C1 [Vinblastine],-4.07% and -8.05%,–
C#C[C@]1(O)CC[C@H]2[C@@H]3CCC4=CC(=O)CC[C@@H]4[C@H]3CC[C@@]21C [norethisterone],-1.78% and -2.47%,–
C[C@]12C=CC(=O)C=C1CC[C@H]1[C@@H]3C[C@@H](O)[C@](O)(C(=O)CO)[C@@]3(C)C[C@H](O)[C@@]12F [triamcinolone],-5.86% and 10.4%,–
CN1CCN(CCCN2c3ccccc3Sc3ccc(C(F)(F)F)cc32)CC1 [trifluoperazine],-2.02% and 1.02%,–
CC(C(=O)O)c1ccc(-c2ccccc2)c(F)c1 (centres undefined) [flurbiprofen],-3.01% and -5.16%,–
c1ccc(-c2ccc(C(c3ccccc3)n3ccnc3)cc2)cc1 (centres undefined) [bifonazole],2.27% and -6.76%,–
O=c1[nH]cc(F)c(=O)[nH]1 [fluorouracil],3.17% and 6.59%,–
O=C(c1ccc(F)cc1)C1CCN(CCn2c(=O)[nH]c3ccccc3c2=O)CC1 [ketanserin],-0.887% and -4.09%,–
CSc1ccc2c(c1)N(CCC1CCCCN1C)c1ccccc1S2 (centres undefined) [thioridazine],-4.31% and 1.1%,–
OCCN1CCN(CCCN2c3ccccc3Sc3ccc(C(F)(F)F)cc32)CC1 [fluphenazine],-2.2% and -3.44%,–
CC(=O)O[C@H]1C[C@@H]2CC[C@@H]3[C@H](CC[C@@]4(C)[C@H]3C[C@H]([N+]3(C)CCCCC3)[C@@H]4OC(C)=O)[C@@]2(C)C[C@@H]1N1CCCCC1 [vecuronium bromide],4.45% and 2.69%,–
O=C1c2c(O)ccc(O)c2C(=O)c2c(NCCNCCO)ccc(NCCNCCO)c21 [mitoxantrone],-3.7% and -11.9%,–

SMILES,percent effect [1],mCherry [2]
CCn1cc(C(=O)O)c(=O)c2cc(F)c(N3CCNCC3)cc21 [norfloxacin],-4.31% and 2.15%,–
C#C[C@]1(O)CC[C@H]2[C@@H]3CCC4=Cc5oncc5C[C@]4(C)[C@H]3CC[C@@]21C [danazol],-0.907% and -6.37%,–
COC(=O)C1=C(C)NC(C)=C(C(=O)OCC(C)C)C1c1ccccc1[N+](=O)[O-] (centres undefined) [nisoldipine],2.87% and -6.36%,–
Cc1ccc(C)c(OCCCC(C)(C)C(=O)O)c1 [gemfibrozil],-0.962% and -7.54%,–
COc1ccc2[nH]c([S@@+]([O-])Cc3ncc(C)c(OC)c3C)nc2c1 [esomeprazole],-1.77% and -9%,–
OC(Cn1cncn1)(Cn1cncn1)c1ccc(F)cc1F [fluconazole],1.17% and -9.64%,–
CCCSc1ccc2[nH]c(NC(=O)OC)nc2c1 [albendazole],-21.9% and -8.22%,–
NC[C@@H]1O[C@H](O[C@H]2[C@@H](O)[C@H](O[C@@H]3[C@@H](O)[C@H](N)C[C@H](N)[C@H]3O[C@H]3O[C@H](CO)[C@@H](O)[C@H](O)[C@H]3N)O[C@@H]2CO)[C@H](N)[C@@H](O)[C@@H]1O [paromomycin],-0.81% and -5.01% and -1.64%,–
CC(c1cc2ccccc2s1)N(O)C(N)=O (centres undefined) [zileuton],-1.73% and -12.4%,–
Cc1ccc(C(=O)Nc2ccc(S(=O)(=O)O)c3cc(S(=O)(=O)O)cc(S(=O)(=O)O)c23)cc1NC(=O)c1cccc(NC(=O)Nc2cccc(C(=O)Nc3cc(C(=O)Nc4ccc(S(=O)(=O)O)c5cc(S(=O)(=O)O)cc(S(=O)(=O)O)c45)ccc3C)c2)c1 [suramin sodium],-0.805% and -18%,–
Cc1c(Cl)cccc1Nc1ccccc1C(=O)O [tolfenamic acid],1.94% and -0.234%,–
COc1cc2ncnc(Nc3ccc(F)c(Cl)c3)c2cc1OCCCN1CCOCC1 [gefitinib],-5.79% and -1.13%,–
CN(C)C(=O)C(CCN1CCC(O)(c2ccc(Cl)cc2)CC1)(c1ccccc1)c1ccccc1 [loperamide],-3.76% and -8.8%,–
O=C(c1ccc(OCCN2CCCCC2)cc1)c1c(-c2ccc(O)cc2)sc2cc(O)ccc12 [raloxifene],0.798% and -5.1%,–
CC(C)COCC(CN(Cc1ccccc1)c1ccccc1)N1CCCC1 (centres undefined) [bepridil],1.24% and 2%,–
C[C@H]1COc2c(N3CCN(C)CC3)c(F)cc3c(=O)c(C(=O)O)cn1c23 [levofloxacin],-0.732% and 0.904% and 9.46%,–
NC(=O)c1ncn([C@@H]2O[C@H](CO)[C@@H](O)[C@H]2O)n1 [ribavirin],-3.05% and -11.4%,–
CO/N=C(\C(=O)N[C@@H]1C(=O)N2C(C(=O)O)=C(CSC(=O)c3ccco3)CS[C@H]12)c1csc(N)n1,-4.23%,102%
CN1CCCCC1CCN1c2ccccc2Sc2ccc([S+](C)[O-])cc21 (centres undefined) [Mesoridazine besylate],-1.2%,74.7%
Nc1nc2[nH]cc(CCc3ccc(C(=O)N[C@@H](CCC(=O)O)C(=O)O)cc3)c2c(=O)[nH]1 [pemetrexed],5.09% and -1.86%,129% and 135%
CC(NCCc1ccc(O)cc1)C(O)c1ccc(O)cc1 (centres undefined) [ritodrine],-1.18% and -5.33%,117% and 97.9%
CC(=O)O[C@H]1C(=O)[C@@]2(C)[C@H]([C@H](OC(=O)c3ccccc3)[C@]3(O)C[C@H](OC(=O)[C@H](O)[C@@H](NC(=O)c4ccccc4)c4ccccc4)C(C)=C1C3(C)C)[C@]1(OC(C)=O)CO[C@@H]1C[C@@H]2O [Taxol],-13.1%,299%
CC(C)Cc1ccc(C(C)C(=O)O)cc1 (centres undefined) [ibuprofen],3.47% and -6.37%,101% and 114%

# Another view of some results above.
SMILES | percent effect [1] | mCherry [2]
CN1CCCCC1CCN1c2ccccc2Sc2ccc([S+](C)[O-])cc21 (centres undefined) [Mesoridazine besylate] | -1.2% | 74.7%
Nc1nc2[nH]cc(CCc3ccc(C(=O)N[C@@H](CCC(=O)O)C(=O)O)cc3)c2c(=O)[nH]1 [pemetrexed] | 5.09% and -1.86% | 129% and 135%

# (continued)

SMILES,percent effect [1],mCherry [2]
CCOc1ccc2ccccc2c1C(=O)N[C@@H]1C(=O)N2[C@@H]1SC(C)(C)[C@@H]2C(=O)O,-3.17%,99.8%
O=c1[nH]c2ccccc2n1C1CCN(CCCC(c2ccc(F)cc2)c2ccc(F)cc2)CC1 [pimozide],-2.07% and -0.998%,81.2% and 94.9%
CCCc1ncc(C(=O)O)s1 [tizoprolic acid],3.31%,97.7%
COc1ccc2c(c1)C(O)(CCCN(C)C)c1ccccc1S2 (centres undefined) [meprotixol],-2.73%,75.5%
CCCC(CCC)C(=O)O [valproate semisodium],-4.52%,103%
CC[C@@H](NC(C)C)[C@@H](O)c1ccc(O)c2[nH]c(=O)ccc12 [Procaterol·HCl],-1.45%,89.1%
"Oc1c(I)cc(I)c2cccnc12 [5,7-Diiodo-8-hydroxyquinoline]",-22.9%,798%
c1ccc(CCNc2nc(-c3ccccc3)cs2)cc1 [fanetizole],10.5%,88.7%
CCCCCCCCCCCC(=O)OC[C@@H](O)[C@H]1OC[C@H](O)[C@H]1O [sorbitan laurate],-8.66%,56.3%
CC(N/C(=N\C#N)Nc1ccncc1)C(C)(C)C (centres undefined) [Pinacidil],-0.366%,83.8%
C[C@]12CCC3=C4CCC(=O)C=C4CC[C@H]3[C@@H]1CC[C@@]2(O)CC#N [dienogest],0.324%,102%
Cn1ccnc1S [thiamazole],-5.73% and -2.06%,75.9% and 90.7%
O=S(=O)([O-])NC1CCCCC1.[Na+] [sodium cyclamate],0.934%,78.1%
O=C(O)Cc1cn(-c2ccccc2)nc1-c1ccc(Cl)cc1 [lonazolac],-8.61%,115%
CC1(C)S[C@@H]2[C@H](NC(=O)[C@H](C(=O)O)c3ccsc3)C(=O)N2[C@H]1C(=O)O [Ticar],-4.72%,112%
C[C@]12CC[C@@H]3c4ccc(O)cc4C[C@@H](CCCCCCCCC[S+]([O-])CCCC(F)(F)C(F)(F)F)[C@H]3[C@@H]1CC[C@@H]2O (some centres undefined) [Fulvestrant],-6.45%,80.7%
Cc1onc(-c2ccccc2)c1C(=O)N[C@@H]1C(=O)N2[C@@H]1SC(C)(C)[C@@H]2C(=O)O [Oxacillin],-7.18%,71.6%
CC[C@H]1OC(=O)[C@H](C)C(=O)[C@H](C)[C@@H](O[C@@H]2O[C@H](C)C[C@H](N(C)C)[C@H]2O)[C@](C)(OC)C[C@@H](C)C(=O)[C@H](C)[C@H]2N(CCCCn3cnc(-c4cccnc4)c3)C(=O)O[C@]12C [Telithromycin],-6.73%,85.8%
O=[N+]([O-])c1ccc(O)c2ncccc12 [nitroxoline],-1.74%,87.9%
C(=C\c1ccccc1)/CN1CCN(C(c2ccccc2)c2ccccc2)CC1,-0.206%,108%
CO[C@H]1C[C@@H]2CC[C@@H](C)[C@@](O)(O2)C(=O)C(=O)N2CCCC[C@H]2C(=O)O[C@H]([C@H](C)C[C@@H]2CC[C@@H](O)[C@H](OC)C2)CC(=O)[C@H](C)/C=C(\C)[C@@H](O)[C@@H](OC)C(=O)[C@H](C)C[C@H](C)/C=C/C=C/C=C/1C,4.99%,117%

# Given bar-delimited: part of the list above.
SMILES | percent effect [1] | mCherry [2]
O=c1[nH]c2ccccc2n1C1CCN(CCCC(c2ccc(F)cc2)c2ccc(F)cc2)CC1 [pimozide] | -2.07% and -0.998% | 81.2% and 94.9%
CCCc1ncc(C(=O)O)s1 [tizoprolic acid] | 3.31% | 97.7%
COc1ccc2c(c1)C(O)(CCCN(C)C)c1ccccc1S2 (centres undefined) [meprotixol] | -2.73% | 75.5%
CCCC(CCC)C(=O)O [valproate semisodium] | -4.52% | 103%
CC[C@@H](NC(C)C)[C@@H](O)c1ccc(O)c2[nH]c(=O)ccc12 [Procaterol·HCl] | -1.45% | 89.1%
Oc1c(I)cc(I)c2cccnc12 [5,7-Diiodo-8-hydroxyquinoline] | -22.9% | 798%
c1ccc(CCNc2nc(-c3ccccc3)cs2)cc1 [fanetizole] | 10.5% | 88.7%
CCCCCCCCCCCC(=O)OC[C@@H](O)[C@H]1OC[C@H](O)[C@H]1O [sorbitan laurate] | -8.66% | 56.3%
CC(N/C(=N\C#N)Nc1ccncc1)C(C)(C)C (centres undefined) [Pinacidil] | -0.366% | 83.8%
C[C@]12CCC3=C4CCC(=O)C=C4CC[C@H]3[C@@H]1CC[C@@]2(O)CC#N [dienogest] | 0.324% | 102%
Cn1ccnc1S [thiamazole] | -5.73% and -2.06% | 75.9% and 90.7%
O=S(=O)([O-])NC1CCCCC1.[Na+] [sodium cyclamate] | 0.934% | 78.1%
O=C(O)Cc1cn(-c2ccccc2)nc1-c1ccc(Cl)cc1 [lonazolac] | -8.61% | 115%
CC1(C)S[C@@H]2[C@H](NC(=O)[C@H](C(=O)O)c3ccsc3)C(=O)N2[C@H]1C(=O)O [Ticar] | -4.72% | 112%
C[C@]12CC[C@@H]3c4ccc(O)cc4C[C@@H](CCCCCCCCC[S+]([O-])CCCC(F)(F)C(F)(F)F)[C@H]3[C@@H]1CC[C@@H]2O (some centres undefined) [Fulvestrant] | -6.45% | 80.7%
Cc1onc(-c2ccccc2)c1C(=O)N[C@@H]1C(=O)N2[C@@H]1SC(C)(C)[C@@H]2C(=O)O [Oxacillin] | -7.18% | 71.6%
CC[C@H]1OC(=O)[C@H](C)C(=O)[C@H](C)[C@@H](O[C@@H]2O[C@H](C)C[C@H](N(C)C)[C@H]2O)[C@](C)(OC)C[C@@H](C)C(=O)[C@H](C)[C@H]2N(CCCCn3cnc(-c4cccnc4)c3)C(=O)O[C@]12C [Telithromycin] | -6.73% | 85.8%
O=[N+]([O-])c1ccc(O)c2ncccc12 [nitroxoline] | -1.74% | 87.9%
C(=C\c1ccccc1)/CN1CCN(C(c2ccccc2)c2ccccc2)CC1 | -0.206% | 108%
